From PMC6603209
Residue numbers refer to the chain shown, from its start. These are yes or no findings as the source states them, for the method shown. A result given as binding can be weak or reduced; the word gives no strength. For some assays here: Tags and fused reporters may be left off the sequences shown.

Experiments:
Assay in all cases: two-hybrid; bacterial adenylate cyclase two-hybrid (BACTH) in E. coli BTH101; PII or variants fused to T18, candidates fused to T25; X-Gal and MacConkey reporter plates, 3–4 days at 25°C
[1] = target: T1, PII(R9L)-T18 fusion (Synechocystis sp. PCC 6803) (UniProt Q55247)
T1 sequence: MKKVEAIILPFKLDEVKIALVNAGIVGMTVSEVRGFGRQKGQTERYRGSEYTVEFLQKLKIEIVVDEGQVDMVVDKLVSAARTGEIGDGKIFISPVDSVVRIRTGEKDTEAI

[2] = target: T2, PII(S49D)-T18 fusion (Synechocystis sp. PCC 6803) (UniProt Q55247)
T2 sequence: T1 sequence with L9R, S49D

[3] = target: PII(I86N)-T18 fusion (Synechocystis sp. PCC 6803) (UniProt Q55247)

Substance	binding [1]	binding [2]	binding [3]
C-terminal T25 fusion of UrtE (Synechocystis sp. PCC 6803)	binds	binds	
C-terminal tagged PipX (T25 fusion) (Synechocystis sp. PCC 6803)	binds	binds	
NrtD with N-terminal T25 fusion (from UniProt P73449)	no binding	binds weakly	binds weakly
UrtD with C-terminal T25 fusion (Synechocystis sp. PCC 6803)	no binding	no binding	
UrtD with N-terminal T25 fusion (Synechocystis sp. PCC 6803)	no binding	no binding	
